This list was built around the results that the source calls inconclusive (neither active nor inactive); the mix of calls is not that of the screen. For some of these results: Where the call is inconclusive, the potency comes from a doubtful curve fit. Calls of active or inactive are those of the source. Unless noted, calls follow the shape of the dose curve; as a rule, active = well fitted curve in the direction sought with a large enough effect; inconclusive = small, poorly fitted or top-dose-only effect, or another doubt; inactive = no such curve, though single readings can be large; an effect the other way counts as inactive or inconclusive. *1 amine or outer side, *2 acyl side, *3 side chain or, on linkers, in order; H or OH if unused. Where a SMILES comes first, the peptide text is derived from it. Bridges are numbered along the chain shown (N, C = ends). Roman numbers before positions name the chains, in order. [ ]: non-standard residue; d: D form. Actinocin(9to1) = Cc1c2oc3c(C)ccc(C(=O)[*:1])c3nc-2c(C(=O)[*:2])c(N)c1=O; NMeV = CN[CH](C(=O)O)C(C)C; Sar = CNCC(=O)O
Tests used:
[1] = Quantitative High-Throughput drug screen in 47 multiple myeloma cell lines against the NCATS MIPE library collection: Delta47_JCRB cell viability assay (AID 1918925; also: nearly all actives have a fitted effect of over 45% in size; also: potency is read from the fitted curve at half-maximal effect); details: Delta47 myeloma viability, CellTiter-Glo ATP, 48 h; viability (% of DMSO): at 45.8 µM (top of the series)
How it was run: (§1)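 Relative luminescence from CellTiter-Glo served as the viability signal, referenced to DMSO-treated (100%) and cell-free medium (0%) controls. Treatment lasted 48 hours at 37C with 500 cells per well.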

Amino acid sequences for entries named in this document (tags omitted). A change or cut given only in a name is not applied to a line headed by its entry.
UniProt P37231: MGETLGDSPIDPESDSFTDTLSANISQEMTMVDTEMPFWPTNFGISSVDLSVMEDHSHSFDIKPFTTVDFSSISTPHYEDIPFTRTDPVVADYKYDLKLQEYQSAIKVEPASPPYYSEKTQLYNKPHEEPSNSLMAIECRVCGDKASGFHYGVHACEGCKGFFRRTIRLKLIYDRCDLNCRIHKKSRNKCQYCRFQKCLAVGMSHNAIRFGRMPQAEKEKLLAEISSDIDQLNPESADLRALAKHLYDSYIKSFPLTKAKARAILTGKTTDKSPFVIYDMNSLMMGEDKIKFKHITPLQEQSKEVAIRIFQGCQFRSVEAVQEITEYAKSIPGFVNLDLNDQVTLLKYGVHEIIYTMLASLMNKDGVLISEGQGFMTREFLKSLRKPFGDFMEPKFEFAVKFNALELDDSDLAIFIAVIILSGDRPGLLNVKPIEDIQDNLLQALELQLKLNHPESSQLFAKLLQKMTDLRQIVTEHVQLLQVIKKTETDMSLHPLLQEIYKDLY

[2] = Quantitative High-Throughput drug screen in 47 multiple myeloma cell lines against the NCATS MIPE library collection: INA6_PLB cell viability assay (AID 1918965; also: nearly all actives have a fitted effect of over 55% in size; also: potency is read from the fitted curve at half-maximal effect); details: INA6 myeloma viability, CellTiter-Glo ATP luminescence, 48 h; series mostly up to 45.8 µM
How it was run: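 CellTiter-Glo ATP luminescence gave viability after 48 h compound treatment at 37C of 500 multiple myeloma cells per well. Normalisation used DMSO-only wells as 100% and media-only wells as 0% viability; primary qHTS of approved and investigational drugs.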

[3] = Quantitative High-Throughput drug screen in 47 multiple myeloma cell lines against the NCATS MIPE library collection: JJN3_DSMZ cell viability assay (AID 1918966; also: potency is read from the fitted curve at half-maximal effect; nearly all actives have a fitted effect of over 50% in size)
How it was run: as §1

[4] = Quantitative High-Throughput drug screen in 47 multiple myeloma cell lines against the NCATS MIPE library collection: PCM6_Riken cell viability assay (AID 1919870); also: potency is read from the fitted curve at half-maximal effect; nearly all actives have a fitted effect of over 30% in size
How it was run: (§2)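 ATP-based CellTiter-Glo luminescence after 48 h drug exposure (37 °C, 5% CO2) of 500 myeloma cells per well. DMSO-only wells set 100% viability, media-only wells 0%; MIPE 4.0 library added by pin tool.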

[5] = S16 Schwann cell viability assay (CellTiter-Glo assay) (AID 624031); also: potency is read from the fitted curve at half-maximal effect; nearly all actives have a fitted effect of over 70% in size
How it was run: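 Following overnight culture in 10% FBS DMEM, parental S16 rat Schwann cells are dosed for 24 h at 37 °C. Viability is read as CellTiter-Glo luminescence and expressed as % activity relative to DMSO (0%) and no-cell wells.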

[6] = S16 Schwann cell PMP22 intronic element firefly luciferase assay (AID 624032); also: potency is read from the fitted curve at half-maximal effect; nearly all actives have a fitted effect of over 30% in size
How it was run: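 Luciferase reporter of PMP22 intronic-element expression in stably transfected S16 rat Schwann cells, read by ONE-Glo luminescence after 24 h compound exposure at 37 C. Activity scaled between DMSO (0%) and positive-control PTC124; concentration-effect curves quality-classified.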

[7] = qHTS of pediatric cancer cell lines to identify multiple opportunities for drug repurposing: Confirmatory screen for NB1643 cells (AID 1347109); also: nearly all actives have a fitted effect of over 45% in size; also: potency is read from the fitted curve at half-maximal effect
How it was run: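 Cells (500-1,000/well) rested 5 h, then received compounds for 48 h; metabolically active cells were measured by CellTiter-Glo luminescence. Final concentrations spanned up to 46 µM (MIPE, 11-point) or 0.59 nM-46 µM (NPC, 8-point) in primary screens, 11-point in follow-ups.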

[8] = qHTS of pediatric cancer cell lines to identify multiple opportunities for drug repurposing: Confirmatory screen for SK-N-MC cells (AID 1347111);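 also: potency is read from the fitted curve at half-maximal effect; cells exposed to compound for 48 h before the readout; nearly all actives have a fitted effect of over 70% in size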
How it was run: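 Seed 500-1,000 cells/well; rest 5 h at 37 degrees C. Pin-transfer compounds, 11-point titration. Incubate 48 h. Add CellTiter-Glo, 15 min RT, read luminescence.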

[9] = Quantitative High-Throughput drug screen in 47 multiple myeloma cell lines against the NCATS MIPE library collection: H1112_PLB cell viability assay (AID 1918967; also: potency is read from the fitted curve at half-maximal effect; nearly all actives have a fitted effect of over 30% in size)
How it was run: as §1

[10] = Quantitative High-Throughput drug screen in 47 multiple myeloma cell lines against the NCATS MIPE library collection: KMS27_JCRB cell viability assay (AID 1918970); details: KMS27 myeloma cells, CellTiter-Glo ATP viability, 48 h; viability (% of DMSO): at 45.8 µM (top of the series); also: potency is read from the fitted curve at half-maximal effect; nearly all actives have a fitted effect of over 30% in size
How it was run: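 CellTiter-Glo luminescence after 48 h drug exposure at 37 °C; 500 cells/well, 1536-well format, pin-tool compound addition; DMSO = 100%, media-only = 0% viability.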

[11] = Quantitative High-Throughput drug screen in 47 multiple myeloma cell lines against the NCATS MIPE library collection: MM1S_ATCC cell viability assay (AID 1918980); also: nearly all actives have a fitted effect of over 45% in size; also: potency is read from the fitted curve at half-maximal effect
How it was run: as §2

[12] = Quantitative High-Throughput drug screen in 47 multiple myeloma cell lines against the NCATS MIPE library collection: VP6_DJ cell viability assay (AID 1919867); also: nearly all actives have a fitted effect of over 40% in size; also: potency is read from the fitted curve at half-maximal effect
How it was run: as §2

CP260 = experiment: qHTS profiling for inhibitors of Plasmodium falciparum proliferation (AID 504749); also: nearly all actives have a fitted effect of over 60% in size; also: potency is read from the fitted curve at half-maximal effect; details: P. falciparum in erythrocytes, SYBR Green DNA, 72 h; series mostly up to 28.7 µM
How it was run: (§3)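 SYBR Green fluorescence of parasite DNA, read after lysis and overnight dark incubation, measured growth over 72 h in erythrocyte culture at 0.3% parasitemia and 2.5% hematocrit. Data normalised to DMSO and 0.29 uM artemisinin, with plate-drift correction.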

CP291 = experiment: as above; details: P. falciparum in erythrocytes, SYBR Green DNA, 72 h; activity, negative = inhibition: at 28.7 µM (top of the series)
How it was run: as §3

PC15 = experiment: as above; details: P. falciparum in erythrocytes, SYBR Green DNA, 72 h; series mostly up to 28.7 µM
How it was run: as §3

TAB113 = experiment: as above; details: P. falciparum in erythrocytes, SYBR Green DNA, 72 h; series mostly up to 28.7 µM
How it was run: as §3

[13] = Quantitative High-Throughput drug screen in 47 multiple myeloma cell lines against the NCATS MIPE library collection: ARD_JJKsccE7 cell viability assay (AID 1918929); details: ARD myeloma cell line viability, CellTiter-Glo, 48 h; viability: at 45.8 µM (top of the series)
How it was run: as §1

[14] = qHTS to identify inhibitors of the type 1 interferon - major histocompatibility complex class I in skeletal muscle: primary screen against the NCATS Pharmaceutical Collection (AID 1347407); details: human skeletal muscle cells, IFN-b-induced MHC-I HiBiT luminescence, 24 h; series mostly up to 45.9 µM;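 also: luminescence of HiBiT knocked into endogenous HLA-B as interferon-induced MHC class I level; potency is read from the fitted curve at half-maximal effect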
How it was run: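 HLA-B HiBiT myoblasts, dexamethasone-free growth medium + 4 ng/ml IFN-b; compounds pinned 1 h after seeding, […] from 46 uM; 24 h, 37 C, 5% CO2; lytic HiBiT detection, 10 min RT, luminescence.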

[15] = biological target: Peroxisome proliferator-activated receptor gamma (Homo sapiens) (UniProt P37231); experiment: qHTS assay for small molecule antagonists of peroxisome proliferator-activated receptor gamma signaling (AID 588537; active = well fitted inhibition curve with a large enough effect in the signal ratio, with a control signal flat, not every such curve was filed as active; inconclusive = small, poorly fitted or top-dose-only effect, or effect the other way, or a change in a side signal; the % refers to the signal ratio;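 also: reporter cells co-stimulated with 50 nM rosiglitazone agonist during compound treatment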); details: HEK293 PPARg-UAS-bla, beta-lactamase ratio, antagonist mode; activity, negative = inhibition: at 76.8 µM (top of the series)
How it was run: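 Antagonist-mode β-lactamase reporter screen run as a titration series. HEK293 PPARγ-UAS-bla cells are stimulated with rosiglitazone (50 nM final) for 16 h, then CCF4 is read at 460/530 nm. Data are scaled between DMSO and rosiglitazone and fitted to the Hill equation.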

[16] = qHTS assay for small molecule agonists of the antioxidant response element (ARE) signaling pathway (AID 651741; active = well fitted activation curve with a large enough effect in the signal ratio; inconclusive = small, poorly fitted or top-dose-only effect, or effect the other way, or a change in a side signal; the % refers to the signal ratio); details: HepG2 ARE-bla reporter, beta-lactamase FRET ratio, 16 h; series mostly up to 96 µM
How it was run: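 Beta-lactamase reporter under ARE control in HepG2 cells, 2,000 per well, was induced by 16 h compound treatment at 37 C. Read-out was fluorescence from LiveBLAzer B/G FRET substrate after 2 h at room temperature.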

Measured: Potency

CN(C)c1ccc(C(=O)NCCCCCCC(=O)NO)cc1
active: [1] 0.59 µM | [2] 0.166 µM | [3] 1.05 µM | [4] 0.662 µM

CC(C)(C)NC(=O)[C@H]1CN(Cc2cccnc2)CCN1C[C@@H](O)C[C@@H](Cc1ccccc1)C(=O)N[C@H]1c2ccccc2C[C@H]1O
inconclusive: [5] 40.5 µM [cytotoxic, single point] | [7] 11.7 µM [cytotoxic, partial curve, poor fit] | [8] 23.3 µM [cytotoxic, single point] | [1] 33.2 µM [cytotoxic, single point] | [9] 9.35 µM [cytotoxic, partial curve] | [10] 1.18 µM [rising, full curve, poor fit] | [11] 2.35 µM [cytotoxic, full curve, poor fit] | CP260 = 11.2 µM [inhibitor, single point] | PC15 = 11.2 µM [inhibitor, single point]
active: [6] 36.1 µM | [12] 7.43 µM | CP291 = 15.1 µM | TAB113 = 11.2 µM

O=C(c1ccc(F)cc1)C1CCN(CCn2c(=S)[nH]c3ccccc3c2=O)CC1
active: CP260 = 3.16 µM | CP291 = 6.75 µM | TAB113 = 3.98 µM
inconclusive: PC15 = 12.6 µM [inhibitor, single point]

Cc1c2oc3c(C)ccc(C(=O)NC4C(=O)NC(C(C)C)C(=O)N5CCCC5C(=O)N(C)CC(=O)N(C)C(C(C)C)C(=O)OC4C)c3nc-2c(C(=O)NC2C(=O)NC(C(C)C)C(=O)N3CCCC3C(=O)N(C)CC(=O)N(C)C(C(C)C)C(=O)OC2C)c(N)c1=O (stereo not given) (I: TVP[Sar][NMeV] / II: TVP[Sar][NMeV]; ester I:1-I:C, II:1-II:C; linker I:N-II:N via Actinocin(9to1); configuration not given here)
inactive: [7] | [1] | [13] | [2] | [11] | [12]
active: [8] 0.0074 µM

CCCCCCCCCCOCC(O)CN (stereo not given)
inconclusive: [5] 14.4 µM [cytotoxic, partial curve, poor fit] | [6] 36.1 µM [inhibitor, single point] | [14] 29.7 µM [inhibitor, single point] | CP291 = 8.49 µM [inhibitor, partial curve] | PC15 = 17.8 µM [inhibitor, single point]
inactive: TAB113

COC(=O)C1=C(C)NC(C)=C(C(=O)OCCN(C)Cc2ccccc2)C1c1cccc([N+](=O)[O-])c1 (stereo not given)
active: [5] 16.1 µM | [6] 5.1 µM

CCCN(CCC)S(=O)(=O)c1ccc(C(=O)O)cc1
inactive: [15] | [16] | CP260

CCOC(=O)C1=C(C)NC(C)=C(C(=O)OCC)C1c1ccccc1/C=C/C(=O)OC(C)(C)C
inconclusive: [14] 26.4 µM [inhibitor, single point]

Reference: PubChem BioAssay (NCATS)
